These are yes or no findings as the source states them, for the method shown. In cells and extracts the contact can be indirect. Some binding calls cover weakened binding; strength is not graded here.

Protein sequences, listed by entry. Tags and fused reporters are not part of them.
UniProt Q9UHP3: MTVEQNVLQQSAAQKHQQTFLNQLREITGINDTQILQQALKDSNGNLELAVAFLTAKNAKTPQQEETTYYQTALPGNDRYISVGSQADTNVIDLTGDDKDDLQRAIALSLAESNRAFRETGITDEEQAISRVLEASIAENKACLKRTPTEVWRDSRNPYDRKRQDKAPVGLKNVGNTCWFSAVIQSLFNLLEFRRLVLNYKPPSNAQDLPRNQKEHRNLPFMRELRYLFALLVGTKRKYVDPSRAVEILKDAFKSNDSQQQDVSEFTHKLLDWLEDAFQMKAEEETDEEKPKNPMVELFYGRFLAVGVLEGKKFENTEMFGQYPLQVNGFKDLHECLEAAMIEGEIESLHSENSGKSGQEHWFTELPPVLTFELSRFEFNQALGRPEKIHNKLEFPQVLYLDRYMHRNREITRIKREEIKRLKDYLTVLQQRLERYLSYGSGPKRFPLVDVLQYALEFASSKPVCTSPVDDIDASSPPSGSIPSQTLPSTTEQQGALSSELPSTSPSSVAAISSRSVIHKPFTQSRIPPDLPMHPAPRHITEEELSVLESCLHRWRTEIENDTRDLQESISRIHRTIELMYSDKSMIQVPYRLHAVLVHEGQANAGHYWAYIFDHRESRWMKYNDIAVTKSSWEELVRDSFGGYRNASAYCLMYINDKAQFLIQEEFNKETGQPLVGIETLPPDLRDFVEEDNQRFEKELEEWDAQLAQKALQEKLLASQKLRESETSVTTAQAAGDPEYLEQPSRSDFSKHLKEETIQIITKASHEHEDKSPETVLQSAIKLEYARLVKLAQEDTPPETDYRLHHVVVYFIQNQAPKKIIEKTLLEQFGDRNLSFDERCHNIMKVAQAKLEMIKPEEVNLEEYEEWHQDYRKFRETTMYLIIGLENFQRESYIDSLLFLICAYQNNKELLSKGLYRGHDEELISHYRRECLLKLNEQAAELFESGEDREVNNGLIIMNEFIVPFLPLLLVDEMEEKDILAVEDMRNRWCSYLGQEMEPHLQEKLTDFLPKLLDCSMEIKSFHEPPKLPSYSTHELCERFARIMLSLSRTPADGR
UniProt Q16665: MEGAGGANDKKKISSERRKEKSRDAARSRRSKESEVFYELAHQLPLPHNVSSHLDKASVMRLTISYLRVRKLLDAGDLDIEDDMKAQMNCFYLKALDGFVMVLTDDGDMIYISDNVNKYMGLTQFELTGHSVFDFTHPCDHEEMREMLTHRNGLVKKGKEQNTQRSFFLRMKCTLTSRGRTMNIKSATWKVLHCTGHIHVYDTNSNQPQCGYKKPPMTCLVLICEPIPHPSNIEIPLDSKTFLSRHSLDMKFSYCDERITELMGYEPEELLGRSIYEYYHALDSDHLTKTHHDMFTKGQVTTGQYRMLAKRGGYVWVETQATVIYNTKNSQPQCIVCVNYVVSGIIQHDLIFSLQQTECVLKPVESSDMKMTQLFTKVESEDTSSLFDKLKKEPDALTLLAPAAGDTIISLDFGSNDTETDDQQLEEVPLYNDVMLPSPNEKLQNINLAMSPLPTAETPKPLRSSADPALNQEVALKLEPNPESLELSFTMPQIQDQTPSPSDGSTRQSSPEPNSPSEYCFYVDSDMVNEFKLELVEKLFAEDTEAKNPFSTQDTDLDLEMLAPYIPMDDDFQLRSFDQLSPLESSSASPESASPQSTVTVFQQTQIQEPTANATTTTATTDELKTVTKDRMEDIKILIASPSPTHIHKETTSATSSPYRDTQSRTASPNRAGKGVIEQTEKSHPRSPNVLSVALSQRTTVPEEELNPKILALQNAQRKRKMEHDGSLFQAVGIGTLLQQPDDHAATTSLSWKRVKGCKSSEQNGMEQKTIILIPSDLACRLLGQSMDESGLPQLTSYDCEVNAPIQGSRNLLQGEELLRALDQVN

Assay [1] concerns the target ectopically expressed USP25 (human) (UniProt Q9UHP3). As to the kind of experiment: co-IP; ectopically expressed HIF-1α and USP25 in HEK293T cells; normoxic and hypoxia-mimetic conditions (200 µM CoCl2 for 24 h); Cell Lysis Buffer (Cell Signaling), 1 mg/mL lysate, overnight at 4 °C; washes in 50 mM Tris pH 7.5, 150 mM NaCl, 1 mM EDTA, 1% Triton X-100, 5% glycerol.
Assay [2] deals with endogenous USP25 (human (endogenous in HEK293T)) (UniProt Q9UHP3). As to the kind of experiment: co-IP; endogenous proteins in HEK293T cells; lysate incubated overnight at 4 °C with 4 µg USP25 antibody (Abcam, ab187156) or rabbit IgG control, then sheep-anti-rabbit magnetic beads; immunoblot.

“ectopically expressed HIF-1α (from UniProt Q16665 1-826)”: in assay [1], the binding entry was “binds”. As for “endogenous HIF-1α (from UniProt Q16665 1-826)”, the binding result in assay [2] was “binds”.

The values are drawn from publication PMC9018856.
